The target in assay [1] is Progranulin (PGRN) (human (endogenous in brain tissue)) (UniProt P28799). In words: co-IP; RIPA extracts of human middle temporal gyrus (200 ug, centrifuged 14,000 g/30 min); 2 ug goat anti-PGRN or rabbit anti-PSAP on protein G or protein A magnetic beads; 18 h at 4 C; washed three times with RIPA; eluted without reducing agent at 80 C; western blot. (In western blotting, separated proteins are transferred to a membrane and probed.)

Amino acid sequences for entries named in this document (tags omitted). A change or cut given only in a name is not applied to a line headed by its entry. Residues count along the entry.
UniProt P28799, residues 18-593: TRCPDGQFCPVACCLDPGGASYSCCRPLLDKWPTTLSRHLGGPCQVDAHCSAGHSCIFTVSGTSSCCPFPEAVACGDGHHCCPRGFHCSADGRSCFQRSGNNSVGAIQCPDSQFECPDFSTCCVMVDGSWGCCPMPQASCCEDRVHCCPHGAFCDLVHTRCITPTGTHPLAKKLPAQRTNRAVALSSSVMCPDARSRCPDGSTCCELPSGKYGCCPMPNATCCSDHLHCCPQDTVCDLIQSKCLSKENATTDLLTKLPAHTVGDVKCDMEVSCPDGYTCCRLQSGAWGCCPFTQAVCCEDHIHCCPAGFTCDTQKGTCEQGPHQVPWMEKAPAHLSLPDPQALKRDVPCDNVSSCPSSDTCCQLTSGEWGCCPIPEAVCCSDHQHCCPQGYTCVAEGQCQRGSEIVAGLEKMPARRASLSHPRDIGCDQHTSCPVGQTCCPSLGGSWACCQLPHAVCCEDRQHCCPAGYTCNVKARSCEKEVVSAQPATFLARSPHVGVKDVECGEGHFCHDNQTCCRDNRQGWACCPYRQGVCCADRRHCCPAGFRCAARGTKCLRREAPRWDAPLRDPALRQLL
UniProt P07339: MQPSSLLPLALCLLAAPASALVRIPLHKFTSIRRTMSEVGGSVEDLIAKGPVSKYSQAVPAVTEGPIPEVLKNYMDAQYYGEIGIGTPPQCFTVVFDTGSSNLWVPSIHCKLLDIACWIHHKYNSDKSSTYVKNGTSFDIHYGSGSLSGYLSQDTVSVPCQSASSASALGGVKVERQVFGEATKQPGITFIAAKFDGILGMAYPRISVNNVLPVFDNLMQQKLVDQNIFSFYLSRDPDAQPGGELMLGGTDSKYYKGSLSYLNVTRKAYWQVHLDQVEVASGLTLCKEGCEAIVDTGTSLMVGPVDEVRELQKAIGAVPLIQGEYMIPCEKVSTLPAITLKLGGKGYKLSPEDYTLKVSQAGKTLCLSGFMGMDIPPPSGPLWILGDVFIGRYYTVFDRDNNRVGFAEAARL

Assay [2] addresses T1, Prosaposin (PSAP) (human (endogenous in brain tissue)) (UniProt P07602).
T1 sequence: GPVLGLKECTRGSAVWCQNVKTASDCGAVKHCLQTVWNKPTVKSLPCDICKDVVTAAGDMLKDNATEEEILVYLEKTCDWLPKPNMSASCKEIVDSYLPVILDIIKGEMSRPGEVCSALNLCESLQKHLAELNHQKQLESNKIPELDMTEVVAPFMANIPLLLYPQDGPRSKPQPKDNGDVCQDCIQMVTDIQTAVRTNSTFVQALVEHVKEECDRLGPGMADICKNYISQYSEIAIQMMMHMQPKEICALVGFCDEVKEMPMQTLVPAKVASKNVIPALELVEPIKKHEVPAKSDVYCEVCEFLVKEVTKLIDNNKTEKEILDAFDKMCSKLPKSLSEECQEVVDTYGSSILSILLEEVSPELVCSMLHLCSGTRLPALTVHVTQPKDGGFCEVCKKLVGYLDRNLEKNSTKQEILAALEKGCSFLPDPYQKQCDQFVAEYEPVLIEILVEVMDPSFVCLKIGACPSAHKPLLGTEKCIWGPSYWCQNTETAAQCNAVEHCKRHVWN
Described as above.

Results are given in words; binding and its absence hold for the method and conditions named. In cells and extracts the contact can be indirect. For some assays here: Binding calls can cover weak binding; strength is not graded here.

Consider “Cathepsin D (from UniProt P07339) (enzyme)”, for which the binding result in assay [1] is listed as “no binding”; in assay [2], “binds weakly”.

These data come from paper PMC6925443.
